{"source": "patent US6191117A", "about": "“Methods of producing weight loss and treatment of obesity” (priority 2000, dated 2001)", "origin": "cited, not measured here", "system": "lateral hypothalamus", "note": "“Also recorded” adds a separate entry of the source. At least one structure is not confirmed: it was looked up by name or label, or the drawing left a doubt.", "data": [{"molecule": "CN[C@H](CC(=O)O)C(=O)O", "note": "[NMDA, N-methyl-D-aspartate]", "values": [{"measurement": "size of eating response elicited", "setting": "LH injection", "value": 10, "unit": "gram"}, {"measurement": "eating response on LH injection", "setting": "injection into lateral hypothalamus", "value": "elicit a strong dose-dependent eating response; also recorded: elicited eating in a dose-dependent fashion; also recorded: trigger intense eating"}]}]}
